Laboratory results reported in publication PMC6222410, “Design, Synthesis and Docking Studies of Novel Macrocyclic Pentapeptides as Anticancer Multi-Targeted Kinase Inhibitors” (Molecules : A Journal of Synthetic Chemistry and Natural …, 2018).

Experiments:
[1] = system: MCF-7 cell line; assay: In vitro cytotoxicity on MCF-7 cell line; format: cell-based; details: MCF7; MCF-7 human breast cancer cells; concentration inhibiting cell viability by 50%; mean of three values; read-out: IC50 (Mean ± SEM) MCF-7
Excerpt: (§1) In vitro bioassay on human cancer cell lines was adopted against two cancer cell lines (MCF-7 and HepG-2). HepG2, human hepatocellular carcinoma and MCF-7, human breast cancer cell lines were obtained from Sigma-Aldrich Chemie GmbH, Taufkirchen, Germany. Tamoxifen and 5-fluorouracil were used as reference standards according to a previously reported method.

[2] = system: HepG-2 cell line; assay: In vitro cytotoxicity on HepG-2 cell line; format: cell-based; details: HepG2; HepG-2 human hepatocellular carcinoma cells; concentration inhibiting cell viability by 50%; mean of three values; read-out: IC50 (Mean ± SEM) HepG-2
Excerpt: as §1

Compound: CC/C(=C(\c1ccccc1)c1ccc(OCCN(C)C)cc1)c1ccccc1 [Tamoxifen, reference compound]
- IC50 [1]: 22.4 ± 2.42 µM
- IC50 [2]: 29.4 ± 1.15 µM
